Data: article PMC10163288
The other results are listed elsewhere or left out.

B1: il10ra_site1_sap_21_mot_HHH_b1_02997_000000220_0001_39_52_H_._HHH_b2_04414_0001_0000100006_0000002_0_0001 (protein)
chain: SSSSQEAAELVLRAFRLALRGNLEEAREIAEEALEIAEEEGNEQARETIETFLRTLKARLDSSSS
B2: il10ra_site1_normal_mot_HHH_b2_06979_000000158_0001_42_57_H_._HHH_b2_00250_0001_0000400013_0000001_1 (protein)
chain: SSSSTEAQELYELVRRLVEALAEGDEELVRELARELEELAEELNNELFLINARFILEDVESSSSS
B3: il10ra_site1_normal_mot_8756ee2cf497b5429c717dfc0c0bcfd6_0001_000000186_0001_1_13_H_._HHH_b1_07180_0001_0000300021_0000001_0_af2pred_0001 (protein)
chain: SSSSDLIERLFELLKRIAELHSEGNEEEARELIEEAQEVAEEAGNEVARAILEFLEKNLNSSSSS
B4: il10ra_site1_sap_19_mot_a6c796b944619e241e020fd597ddb6da_0001_af2_000000092_0001_15_31_H_._HHH_b2_00760_af2_0001_0000300007_0000001_1_0001 (protein)
chain: SSSSSDEEIEERVEELLEEAEKIDDPDEAYKALKEAIELAAELNDPRLFRLIMEVLHRWISSSSS
B5: il10ra_site1_sap_19_mot_HHH_b2_06602_000000226_0001_1_16_H_._HHH_b1_03685_af2_0001_0000100006_0000001_0_0001 (protein)
chain: SSSSHLAEVAFRLAEESLRWAAEENDPEALKRSLEAFSLALEELGNPELVERLEELYEELSSSSS
B6: il10ra_site1_sap_8_mot_HHH_b1_06786_000000000_0001_1_20_H_._HHH_b1_05947_0001_0000200009_0000001_1_0001 (protein)
chain: SSSSDREERIQELLERAEELAEEGDPREAARLLQEAIHLAFELGDWELLHEIWRVLRKVASSSSS
B7: il10ra_site1_sap_28_mot_0eddeacbb14b769e73e254714f31e2f9_0001_af2_000000203_0001_37_51_H_._ems_3hM_77_0001_0000100001_0000002_1_0001 (protein)
chain: SSSSDVEERIEELLEEIERLLEEGNPEEAYKLLREVAEIAHENNDEEASQRVLELSRLASSSSSS
B8: il10ra_site1_sap_26_mot_HHH_b2_03328_af2_000000127_0001_1_19_H_._HHH_b2_02567_0001_0000300027_0000001_0_0001 (protein)
chain: SSSSSAEEELEELLEELEQLLREGDRERFLEVLQRALQLAYQASDEEVLRRLWELLEELDSSSSS
B9: il10ra_site1_sap_19_mot_HHH_b1_03314_af2_000000278_0001_42_55_H_._HHH_b1_02703_af2_0001_0000600018_0000001_0_0001 (protein)
chain: SSSSDAEEKVKLTLRFIRWLLEEGDKRAARHFARVALELAERIGDPELEREVEELLELAENSSSS
B10: il10ra_site1_normal_mot_HHH_b1_05056_000000217_0001_1_20_H_._876462e7a17a420be942191b58edf4ab_0001_1_0001_0000600019_0000001_0 (protein)
chain: TELQEILRLVFELGDPDILQALWKLVKRLAKGDPEAEELLKEILELLREGNREEVHELAKEILEK

target: il10ra, Q13651; experiment: yeast display titration

Apparent Kd, inactive:
B1 no binding seen
B2 no binding seen
B3 no binding seen
B4 no binding seen
B5 no binding seen
B6 no binding seen
B7 no binding seen
B8 no binding seen
B9 no binding seen
B10 no binding seen

Random excerpt: 2 records from the list.
Apparent Kd, inactive:
B2 no binding seen
B10 no binding seen
